This is one part of the list.
Compound: Cc1cc(ccc1-c1ccccc1)C(=O)N1CCCN(CC1)C(=O)CCl [compound 10]
Assay: probe-labelled cysteine peptide fold change vs DMSO (competition) (log2 fold change); higher = less target engagement (more negative = stronger competition)
Details: THP-1, incubation time: 4 h
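Further: competitive profiling in live THP-1 cells: cysteine peptides tagged with an iodoacetamide desthiobiotin (IA-DTB) probe, intensity after compound treatment relative to DMSO-treated cells.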

The chains behind the UniProt entries cited, without tags or fusion partners. Where a name states a change or a piece, a line headed by the entry shows the natural chain unless it says otherwise.
UniProt Q14669: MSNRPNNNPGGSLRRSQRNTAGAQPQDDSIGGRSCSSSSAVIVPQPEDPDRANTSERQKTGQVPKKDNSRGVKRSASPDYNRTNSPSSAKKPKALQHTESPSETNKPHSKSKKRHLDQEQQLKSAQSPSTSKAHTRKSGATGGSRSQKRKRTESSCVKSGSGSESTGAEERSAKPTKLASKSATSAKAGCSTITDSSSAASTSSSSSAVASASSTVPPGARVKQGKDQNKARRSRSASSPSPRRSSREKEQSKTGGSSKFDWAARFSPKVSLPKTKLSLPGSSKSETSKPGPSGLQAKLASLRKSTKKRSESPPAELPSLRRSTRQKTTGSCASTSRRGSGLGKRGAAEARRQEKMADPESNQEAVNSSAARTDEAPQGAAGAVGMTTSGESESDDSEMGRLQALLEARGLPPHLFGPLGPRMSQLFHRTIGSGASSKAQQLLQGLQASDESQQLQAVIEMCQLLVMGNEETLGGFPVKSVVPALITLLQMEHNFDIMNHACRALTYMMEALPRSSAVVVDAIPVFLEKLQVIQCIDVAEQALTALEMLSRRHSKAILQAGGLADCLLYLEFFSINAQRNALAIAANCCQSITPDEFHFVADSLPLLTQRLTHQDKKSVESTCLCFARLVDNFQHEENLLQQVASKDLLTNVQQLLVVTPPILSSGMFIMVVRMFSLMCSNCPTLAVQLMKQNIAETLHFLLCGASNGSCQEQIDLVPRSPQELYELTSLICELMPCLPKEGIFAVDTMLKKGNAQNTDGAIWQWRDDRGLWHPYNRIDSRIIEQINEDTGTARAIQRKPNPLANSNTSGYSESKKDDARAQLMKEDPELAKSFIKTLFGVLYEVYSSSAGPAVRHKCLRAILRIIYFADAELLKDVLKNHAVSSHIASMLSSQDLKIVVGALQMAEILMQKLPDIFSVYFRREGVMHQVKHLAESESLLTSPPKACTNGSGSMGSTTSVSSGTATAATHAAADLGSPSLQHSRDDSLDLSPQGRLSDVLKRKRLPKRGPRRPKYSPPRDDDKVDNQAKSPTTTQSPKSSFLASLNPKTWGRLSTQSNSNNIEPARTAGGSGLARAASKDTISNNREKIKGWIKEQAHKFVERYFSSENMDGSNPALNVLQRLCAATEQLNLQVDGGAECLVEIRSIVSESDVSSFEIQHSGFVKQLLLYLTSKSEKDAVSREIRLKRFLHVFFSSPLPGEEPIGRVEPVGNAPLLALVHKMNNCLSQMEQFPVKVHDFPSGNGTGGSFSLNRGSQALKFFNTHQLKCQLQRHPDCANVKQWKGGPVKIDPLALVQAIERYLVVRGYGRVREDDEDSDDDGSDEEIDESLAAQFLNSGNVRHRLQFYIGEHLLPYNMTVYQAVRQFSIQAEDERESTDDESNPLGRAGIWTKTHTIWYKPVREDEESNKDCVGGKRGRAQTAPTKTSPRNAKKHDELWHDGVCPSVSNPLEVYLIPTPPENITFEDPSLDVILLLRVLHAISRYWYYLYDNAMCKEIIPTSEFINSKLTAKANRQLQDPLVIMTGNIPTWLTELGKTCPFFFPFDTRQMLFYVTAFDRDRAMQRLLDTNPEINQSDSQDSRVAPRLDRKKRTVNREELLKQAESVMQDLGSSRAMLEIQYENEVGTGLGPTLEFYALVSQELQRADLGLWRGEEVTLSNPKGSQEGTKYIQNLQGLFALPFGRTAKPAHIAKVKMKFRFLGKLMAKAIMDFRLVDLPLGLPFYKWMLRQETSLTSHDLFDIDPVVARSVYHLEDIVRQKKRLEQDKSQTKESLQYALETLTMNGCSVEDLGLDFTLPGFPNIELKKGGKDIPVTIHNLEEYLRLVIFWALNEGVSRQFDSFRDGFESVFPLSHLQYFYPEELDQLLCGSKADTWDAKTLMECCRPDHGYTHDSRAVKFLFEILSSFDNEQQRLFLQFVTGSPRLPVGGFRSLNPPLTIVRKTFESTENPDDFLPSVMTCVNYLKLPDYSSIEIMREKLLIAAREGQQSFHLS
UniProt Q7Z392: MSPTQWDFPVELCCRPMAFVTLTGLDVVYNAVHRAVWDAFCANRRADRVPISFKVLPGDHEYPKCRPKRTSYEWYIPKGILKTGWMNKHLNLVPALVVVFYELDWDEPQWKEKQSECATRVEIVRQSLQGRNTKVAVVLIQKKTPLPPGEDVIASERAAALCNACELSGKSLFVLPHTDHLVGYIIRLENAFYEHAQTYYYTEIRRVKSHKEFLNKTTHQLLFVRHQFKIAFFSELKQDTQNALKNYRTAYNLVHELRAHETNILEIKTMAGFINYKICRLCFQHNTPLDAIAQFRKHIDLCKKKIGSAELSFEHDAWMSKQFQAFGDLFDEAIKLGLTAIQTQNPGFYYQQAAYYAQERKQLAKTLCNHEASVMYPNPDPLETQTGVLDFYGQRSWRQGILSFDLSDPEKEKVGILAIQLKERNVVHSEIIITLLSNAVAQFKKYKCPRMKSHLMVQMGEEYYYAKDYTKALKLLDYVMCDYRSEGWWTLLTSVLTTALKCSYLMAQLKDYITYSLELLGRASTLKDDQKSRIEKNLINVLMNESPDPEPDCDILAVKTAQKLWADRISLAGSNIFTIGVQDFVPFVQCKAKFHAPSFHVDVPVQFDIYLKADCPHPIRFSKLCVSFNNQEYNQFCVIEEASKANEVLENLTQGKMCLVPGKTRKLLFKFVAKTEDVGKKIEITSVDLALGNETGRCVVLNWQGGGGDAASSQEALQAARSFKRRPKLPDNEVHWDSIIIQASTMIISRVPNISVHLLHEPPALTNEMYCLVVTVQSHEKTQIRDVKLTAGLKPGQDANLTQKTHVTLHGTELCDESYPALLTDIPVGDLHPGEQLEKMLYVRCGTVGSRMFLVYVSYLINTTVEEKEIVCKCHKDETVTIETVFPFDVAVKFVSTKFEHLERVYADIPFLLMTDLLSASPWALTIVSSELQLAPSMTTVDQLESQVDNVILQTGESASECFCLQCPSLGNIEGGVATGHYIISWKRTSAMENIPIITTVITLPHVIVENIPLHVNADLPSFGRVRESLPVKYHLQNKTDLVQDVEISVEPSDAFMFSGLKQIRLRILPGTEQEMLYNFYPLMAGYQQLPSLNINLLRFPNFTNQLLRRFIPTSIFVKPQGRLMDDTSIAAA
UniProt Q8IZ69: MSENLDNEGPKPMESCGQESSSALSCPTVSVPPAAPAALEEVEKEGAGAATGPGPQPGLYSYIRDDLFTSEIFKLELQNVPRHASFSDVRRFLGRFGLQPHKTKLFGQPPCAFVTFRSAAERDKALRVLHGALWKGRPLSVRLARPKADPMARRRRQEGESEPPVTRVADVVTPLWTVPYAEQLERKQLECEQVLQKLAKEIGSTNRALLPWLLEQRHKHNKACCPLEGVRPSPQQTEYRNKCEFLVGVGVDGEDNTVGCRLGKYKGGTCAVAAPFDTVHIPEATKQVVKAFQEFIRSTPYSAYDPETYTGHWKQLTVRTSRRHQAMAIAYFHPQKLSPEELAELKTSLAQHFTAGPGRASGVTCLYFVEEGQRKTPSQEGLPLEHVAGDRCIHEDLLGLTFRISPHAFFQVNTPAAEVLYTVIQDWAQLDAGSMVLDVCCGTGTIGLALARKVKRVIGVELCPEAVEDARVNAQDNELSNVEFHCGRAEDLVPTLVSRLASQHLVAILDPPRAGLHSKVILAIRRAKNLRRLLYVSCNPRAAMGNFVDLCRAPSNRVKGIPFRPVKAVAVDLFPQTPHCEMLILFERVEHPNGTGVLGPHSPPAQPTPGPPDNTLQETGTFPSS
UniProt Q7Z2T5: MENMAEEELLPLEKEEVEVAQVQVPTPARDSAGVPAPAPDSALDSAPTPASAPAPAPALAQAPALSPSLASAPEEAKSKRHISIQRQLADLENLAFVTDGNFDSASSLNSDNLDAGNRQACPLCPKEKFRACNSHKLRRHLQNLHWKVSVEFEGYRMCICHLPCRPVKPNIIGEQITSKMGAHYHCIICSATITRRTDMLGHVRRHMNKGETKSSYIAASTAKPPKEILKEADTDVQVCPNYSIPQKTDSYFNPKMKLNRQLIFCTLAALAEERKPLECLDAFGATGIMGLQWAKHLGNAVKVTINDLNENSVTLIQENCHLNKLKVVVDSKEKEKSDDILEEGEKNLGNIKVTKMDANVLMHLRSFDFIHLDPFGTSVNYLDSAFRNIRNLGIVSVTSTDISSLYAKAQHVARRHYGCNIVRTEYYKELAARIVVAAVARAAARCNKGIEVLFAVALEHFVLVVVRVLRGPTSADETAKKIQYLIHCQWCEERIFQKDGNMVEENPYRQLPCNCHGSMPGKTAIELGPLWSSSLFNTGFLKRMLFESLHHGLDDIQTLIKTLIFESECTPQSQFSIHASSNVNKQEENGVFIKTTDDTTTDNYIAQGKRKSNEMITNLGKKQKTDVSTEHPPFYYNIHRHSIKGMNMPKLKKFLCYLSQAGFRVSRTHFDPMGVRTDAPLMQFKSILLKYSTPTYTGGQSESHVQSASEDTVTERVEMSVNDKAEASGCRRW
UniProt O14545: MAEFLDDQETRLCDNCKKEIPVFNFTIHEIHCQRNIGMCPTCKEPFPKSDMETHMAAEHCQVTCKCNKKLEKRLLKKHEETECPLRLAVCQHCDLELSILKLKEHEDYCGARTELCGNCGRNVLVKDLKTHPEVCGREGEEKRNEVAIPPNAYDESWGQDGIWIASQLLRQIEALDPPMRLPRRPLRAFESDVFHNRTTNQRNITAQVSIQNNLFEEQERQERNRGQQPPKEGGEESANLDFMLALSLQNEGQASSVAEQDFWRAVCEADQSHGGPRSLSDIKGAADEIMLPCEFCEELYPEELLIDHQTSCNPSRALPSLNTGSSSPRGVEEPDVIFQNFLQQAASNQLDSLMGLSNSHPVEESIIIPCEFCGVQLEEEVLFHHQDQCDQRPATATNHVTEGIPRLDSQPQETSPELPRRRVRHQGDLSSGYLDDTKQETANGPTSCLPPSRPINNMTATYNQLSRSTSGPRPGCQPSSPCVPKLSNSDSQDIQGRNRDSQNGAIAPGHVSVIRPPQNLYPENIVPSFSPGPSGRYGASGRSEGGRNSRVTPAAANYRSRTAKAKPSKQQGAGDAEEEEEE
UniProt Q13049: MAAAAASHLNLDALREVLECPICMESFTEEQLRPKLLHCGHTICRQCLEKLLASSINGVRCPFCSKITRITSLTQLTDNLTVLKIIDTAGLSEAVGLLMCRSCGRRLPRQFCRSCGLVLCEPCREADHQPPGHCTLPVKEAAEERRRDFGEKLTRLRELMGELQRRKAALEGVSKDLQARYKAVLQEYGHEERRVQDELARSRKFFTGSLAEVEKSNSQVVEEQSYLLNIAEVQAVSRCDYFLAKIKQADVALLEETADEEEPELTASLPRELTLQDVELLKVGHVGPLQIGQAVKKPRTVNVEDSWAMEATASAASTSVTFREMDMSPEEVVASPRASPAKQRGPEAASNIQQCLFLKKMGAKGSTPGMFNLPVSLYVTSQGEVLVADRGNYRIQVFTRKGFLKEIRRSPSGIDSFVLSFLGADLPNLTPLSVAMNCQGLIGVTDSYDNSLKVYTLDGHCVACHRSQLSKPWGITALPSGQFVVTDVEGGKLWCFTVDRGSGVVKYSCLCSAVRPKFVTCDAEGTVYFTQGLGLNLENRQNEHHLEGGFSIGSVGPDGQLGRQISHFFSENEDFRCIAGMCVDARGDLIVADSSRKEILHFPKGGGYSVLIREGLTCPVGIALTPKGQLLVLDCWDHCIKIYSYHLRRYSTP
UniProt Q13263: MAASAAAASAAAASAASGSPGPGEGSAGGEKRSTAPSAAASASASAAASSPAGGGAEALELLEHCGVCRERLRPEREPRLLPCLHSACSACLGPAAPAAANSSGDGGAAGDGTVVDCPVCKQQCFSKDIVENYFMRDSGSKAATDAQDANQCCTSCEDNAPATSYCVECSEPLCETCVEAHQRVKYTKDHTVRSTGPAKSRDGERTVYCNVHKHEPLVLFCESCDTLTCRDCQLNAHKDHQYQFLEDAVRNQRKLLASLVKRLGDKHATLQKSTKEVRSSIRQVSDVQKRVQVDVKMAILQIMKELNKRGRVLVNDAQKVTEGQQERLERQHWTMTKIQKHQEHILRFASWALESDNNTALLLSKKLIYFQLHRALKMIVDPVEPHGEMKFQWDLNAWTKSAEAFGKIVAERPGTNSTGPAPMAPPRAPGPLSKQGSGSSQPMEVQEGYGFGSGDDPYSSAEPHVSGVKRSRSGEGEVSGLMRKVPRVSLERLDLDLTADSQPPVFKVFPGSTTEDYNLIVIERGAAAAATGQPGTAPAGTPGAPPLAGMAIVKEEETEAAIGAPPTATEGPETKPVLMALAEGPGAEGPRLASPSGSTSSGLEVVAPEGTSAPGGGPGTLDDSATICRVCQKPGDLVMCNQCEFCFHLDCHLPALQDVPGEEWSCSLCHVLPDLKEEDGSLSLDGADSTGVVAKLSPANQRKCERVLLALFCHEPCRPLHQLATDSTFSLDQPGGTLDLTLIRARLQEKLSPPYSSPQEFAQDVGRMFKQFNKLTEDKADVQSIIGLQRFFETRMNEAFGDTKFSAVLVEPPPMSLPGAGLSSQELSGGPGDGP

Row | Target | probe-labelled cysteine peptide fold change (10 µM) | probe-labelled cysteine peptide fold change (50 µM)
1 | TRIM33_Q9UPN9_849_IEPADMNESCK (UniProt Q9UPN9) | -0.217 | -0.435
2 | TRIP12_Q14669_156_TESSCVK (UniProt Q14669) | -0.128 | -0.297
3 | TPP2_P29144_150_VALAEACR (UniProt P29144) | -0.136 | 0.0495
4 | TPX2_Q9ULW0_594_NVTQIEPFCLETDRR (UniProt Q9ULW0) | 0.612 | 0.614
5 | TRHDE_Q9UKU6_894_ILLEALTCSDDRNLLNR (UniProt Q9UKU6) | 0.0302 | -0.168
6 | TRAPPC10_P48553_1025_WTEEPPPSLHCR (UniProt P48553) | 0.0629 | 0.0659
7 | TRMT10C_Q7L0Y3_78_SSVQEECVSTISSSKDEDPLAATR (UniProt Q7L0Y3) | -0.141 | -0.518
8 | TRAPPC11_Q7Z392_553_NLINVLMNESPDPEPDCDILAVK (UniProt Q7Z392) | 0.135 | 0.231
9 | TRIOBP_Q9H2D6_2111_SQEDGHIPPGYISQEACER (UniProt Q9H2D6) | 0.00515 | -0.000468
10 | TRMT2A_Q8IZ69_260_CEFLVGVGVDGEDNTVGCR (UniProt Q8IZ69) | -0.239 | 0.16
11 | TRMT13_Q9NUP7_414_ITDDGADCLPGLLSVEEK (UniProt Q9NUP7) | -0.296 | 0.118
12 | TRIM25_Q14258_107_ASAPSPNAQVACDHCLK (UniProt Q14258) | 0.147 | -0.0942
13 | TRMT1L_Q7Z2T5_656_KFLCYLSQAGFR (UniProt Q7Z2T5) | -0.549 | -0.635
14 | TRIM33_Q9UPN9_447_CDPVPAANGAIR (UniProt Q9UPN9) | -0.0626 | -0.323
15 | TRAFD1_O14545_267_AVCEADQSHGGPR (UniProt O14545) | -0.116 | -0.0923
16 | TRAFD1_O14545_64_SDMETHMAAEHCQVTCK (UniProt O14545) | -0.0569 | -0.29
17 | TRIM32_Q13049_509_YSCLCSAVRPK (UniProt Q13049) | -0.204 | -0.0318
18 | TRIM36_Q9NQ86_499_GSICSPCSR (UniProt Q9NQ86) | -0.137 | -0.203
19 | TRAPPC10_P48553_162_CVVLSDPLK (UniProt P48553) | -0.195 | -0.191

Row | Target | probe-labelled cysteine peptide fold change (10 µM) | probe-labelled cysteine peptide fold change (50 µM)
20 | TRAPPC10_P48553_729_CSHVTLEPGANQITFR (UniProt P48553) | 0.0105 | -0.106
21 | TRMT1L_Q7Z2T5_189_MGAHYHCIICSATITR (UniProt Q7Z2T5) | 0.0491 | 0.249
22 | TPX2_Q9ULW0_145_CATPVIIDEILPSK (UniProt Q9ULW0) | -0.416 | -0.0813
23 | TRIM56_Q9BRZ2_202_LDPHLDHPCLPLAEAVR (UniProt Q9BRZ2) | -0.0566 | -0.0987
24 | TRAF7_Q6Q0C0_282_YGCTFIGNQDTYETHLETCR (UniProt Q6Q0C0) | 0.477 | 0.396
25 | TPP1_O14773_122_CHSVITQDFLTCWLSIR (UniProt O14773) | -0.303 | 0.336
26 | TRAFD1_O14545_116_TELCGNCGR (UniProt O14545) | 0.0202 | 0.112
27 | TRAPPC4_Q9Y296_195_CELFDQNLK (UniProt Q9Y296) | 0.0982 | -0.0304
28 | TRERF1_Q96PN7_876_CHPLANYHYAGSDK (UniProt Q96PN7) | 0.125 | -0.873
29 | TRMT1_Q9NXH9_150_TAAVGEICEEGLHVLEGLAASGLR (UniProt Q9NXH9) | -0.0654 | -0.0072
30 | TRAPPC12_Q8WVT3_663_NAVANNNAAVCLLYLGK (UniProt Q8WVT3) | 0.14 | 0.307
31 | TRMT2A_Q8IZ69_365_ASGVTCLYFVEEGQR (UniProt Q8IZ69) | 0.194 | -0.0103
32 | TRIM28_Q13263_229_HEPLVLFCESCDTLTCR (UniProt Q13263) | 0.0282 | -0.0171
33 | TRIM28_Q13263_221+224_HEPLVLFCESCDTLTCR (UniProt Q13263) | -0.294 | 0.157
34 | TRAPPC11_Q7Z392_502_CSYLMAQLK (UniProt Q7Z392) | 0.00419 | 0.439
35 | TPT1_P13693_28_IREIADGLCLEVEGK (UniProt P13693) | -0.0801 | 0.0526
36 | TRIM32_Q13049_134_EADHQPPGHCTLPVK (UniProt Q13049) | -0.119 | -0.211
37 | TRIP12_Q14669_35_SCSSSSAVIVPQPEDPDRANTSER (UniProt Q14669) | 0.00993 | -0.396
38 | TRAPPC11_Q7Z392_845_CGTVGSR (UniProt Q7Z392) | 0.0126 | 0.0768

Single values from the results shown:
probe-labelled cysteine peptide fold change (50 µM) with TRIP12_Q14669_156_TESSCVK (UniProt Q14669) is entered as -0.297
probe-labelled cysteine peptide fold change (50 µM) with TRAPPC11_Q7Z392_553_NLINVLMNESPDPEPDCDILAVK (UniProt Q7Z392) is entered as 0.231

Reference: the supplement of paper PMC12067093, “Discovery and optimisation of a covalent ligand for TRIM25 and its application to targeted protein ubiquitination” (Chemical Science, 2025)
